Measurements reported in PubChem BioAssay AID1053208 (Peter MacCallum Cancer Centre, 2014)
Shown is an unselected part of about 17,000 reagents tested. 788 of them (4.7%) were called active. 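Calls rest on z-score classes alone; an extra cut-off of viability at most 70% of control was not applied to them.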 A number with no mark means an inactive call. Not all columns of the deposit are shown. Reagent sequences are not shown.

Assay: 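Genes whose silencing cuts survival of bone tumour cells only with doxorubicin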 (primary screen)
Cell system: mouse osteosarcoma cells, early-passage culture from an engineered mouse model of fibroblastic bone tumour
Knock-down reagent: siRNA pool against mouse genes, 40 nM
Duration: about 120 h (48 h before drug, then 72 h with drug)
Challenge: doxorubicin 100 nM for 72 h, roughly 30-40% inhibitory dose
Read-out: 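Luminescent ATP signal taken as viability with or without 100 nM doxorubicin for 72 h; mean of two wells set against non-targeting siRNA and turned into robust z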
Reading the numbers: viability z-score with doxorubicin: higher = more viable cells under doxorubicin; viability z-score without drug: higher = more viable cells with knock-down alone
Active means: 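a pool counts as active when its viability z-score with doxorubicin is -2 or below and its z-score without drug lies between -2 and 2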

With Sypl1, how do the results read?
combined z-score class: no change with or without drug; viability z-score with doxorubicin: -1.12; viability z-score without drug: 0.51

For Ifi47, what was measured?
combined z-score class: no change with or without drug; viability z-score with doxorubicin: -0.9; viability z-score without drug: 0.17

For Slc20a1, what was measured?
combined z-score class: no change with or without drug; viability z-score with doxorubicin: -1.01; viability z-score without drug: 0.17

With Snrpd3, what does the deposit list?
combined z-score class: low cell count with and without drug; viability z-score with doxorubicin: -7.87; viability z-score without drug: -4.22

Which result is listed for Nxph3?
combined z-score class: no change with or without drug; viability z-score with doxorubicin: -0.56; viability z-score without drug: -1.35

With Sipa1, what was measured?
combined z-score class: no change with or without drug; viability z-score with doxorubicin: -0.9; viability z-score without drug: -0.84

Quoted from above, 3 entries:
Snrpd3 — combined z-score class: low cell count with and without drug; viability z-score with doxorubicin: -7.87; viability z-score without drug: -4.22
Nxph3 — combined z-score class: no change with or without drug; viability z-score with doxorubicin: -0.56; viability z-score without drug: -1.35
Sipa1 — combined z-score class: no change with or without drug; viability z-score with doxorubicin: -0.9; viability z-score without drug: -0.84

The listing continues:
Which result is listed for Psip1?
combined z-score class: no change with or without drug; viability z-score with doxorubicin: 1.57; viability z-score without drug: 0.84

For Nrp2, what does the deposit list?
combined z-score class: no change with or without drug; viability z-score with doxorubicin: -0.79; viability z-score without drug: -0.17

With Tert, how do the results read?
combined z-score class: no change with or without drug; viability z-score with doxorubicin: 0.34; viability z-score without drug: -0.51

For Sptlc2, how do the results read?
combined z-score class: no change with or without drug; viability z-score with doxorubicin: -0.67; viability z-score without drug: 0

What did the screen give for Tenm2?
combined z-score class: no change with or without drug; viability z-score with doxorubicin: 0.67; viability z-score without drug: -0.51

What did the screen give for Mcpt8?
combined z-score class: no change with or without drug; viability z-score with doxorubicin: 0.67; viability z-score without drug: 0.84

How did the screen score Fgf13?
combined z-score class: no change with or without drug; viability z-score with doxorubicin: -1.24; viability z-score without drug: -0.51

What is on record for Vps25?
combined z-score class: no change with or without drug; viability z-score with doxorubicin: 0.67; viability z-score without drug: 1.01

What did the screen give for Pigz?
combined z-score class: no change with or without drug; viability z-score with doxorubicin: 1.57; viability z-score without drug: 0.51

For Myh1, what does the deposit list?
combined z-score class: no change with or without drug; viability z-score with doxorubicin: 1.46; viability z-score without drug: -0.34

How did the screen score Camkk2?
combined z-score class: no change with or without drug; viability z-score with doxorubicin: -0.45; viability z-score without drug: 0.17

How did the screen score Cacna1g?
combined z-score class: no change with or without drug; viability z-score with doxorubicin: -0.22; viability z-score without drug: -0.17

How did the screen score Ctdsp2?
combined z-score class: no change with or without drug; viability z-score with doxorubicin: 0.56; viability z-score without drug: 0.84
